Experimental data published in patent US10525133B2, “Aqueous composition comprising at least one protein and one solubilizing agent, preparation thereof and uses thereof” (ADOCIA, priority 2014, dated 2020).
At least one read-out could not be matched to a standard name with certainty. Some compounds share one wording; it may come from a single statement.

Chains of the proteins cited; added tags and fusions are not shown. Residues count along the entry.
UniProt P01308, 25-54 limits assumed: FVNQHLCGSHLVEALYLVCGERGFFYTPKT
UniProt P01308, 90-110 limits assumed: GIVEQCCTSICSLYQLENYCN

How the values were obtained:
[1] = test system: Nanogam (human immunoglobulins); assay: Reduction in aggregation of Nanogam at its isoelectric point (light scattering at 12.8°, Malvern NanoZS); type: physicochemical; details: summary in words of table 2
Protocol: The Nanogam formulation is a formulation of human immunoglobulins at 50 mg/ml and at pH 4.3 containing various IgG subclasses (IgG1: 54-70%, IgG2: 29-45%, IgG3: 1-4%, IgG4: 0-0.5%, IgA: at most 6 μg/ml). […] A test with various compounds is therefore carried out at the isoelectric point in order to identify the compounds which make it possible to reduce this aggregation phenomenon.
A commercial solution of Nanogam at 50 mg/ml is used. […] Mixing between the solution of Nanogam and one of the solutions of compound is carried out in order to obtain a solution containing 40 mg/ml of human immunoglobulins and the desired concentration of compound. The pH of the various solutions is adjusted to pH 8.5 by adding hydrochloric acid or sodium hydroxide depending on the pH achieved following the mixing between the compound of interest and the solution of human immunoglobulins.
The mixtures are then analyzed by light scattering on a Malvern NanoZS instrument.
The scattered intensities are measured at 12.8°.

human insulin = biological target: T1, human insulin (Homo sapiens, UniProt P01308); assay: Solubilization of human insulin at its isoelectric point (visual appearance, soluble fraction by RP-HPLC); type: physicochemical; details: summary in words of table 1
T1 construct: A solution of human insulin at 500 IU/ml is prepared
Protocol: Human insulin has an isoelectric point (pI) of 5.3. […] A test of solubility at the pI of human insulin with various compounds is carried out. […] Solutions of compounds at various concentrations in water are prepared as described in examples B1 to B4. […] The pH of the various solutions is adjusted to pH 5.3 by adding hydrochloric acid or sodium hydroxide depending on the pH achieved following the mixing between the compound and the solution of human insulin. The appearance of the solution is documented. […] If the solution is clear, the compound allows total solubilization of human insulin at the concentration tested. In addition, the mixtures are centrifuged at 4000 rpm for 10 minutes in a Hereaus Biofuge Pico centrifuge (Rotor #3328) and then filtered through 0.22 μm in order to remove the precipitate. The resulting soluble fractions are then assayed by RP-HPLC (column: Sunfire C18, Waters ref:186003417; mobile phase: sodium phosphate/acetonitrile gradient; detection: UV at 276 nm) with an external insulin range in order to quantify the percentage of soluble insulin at the pI.

SMILES	Improvement of the solubility of Nanogam at its isoelectric point [1]	Improvement in the solubility of human insulin at its pI (human insulin)
CC(Oc1ccccc1)C(=O)O (centres unmarked) [2-Phenoxypropionic acid]	very strong improvement	–
O=C(O)C(O)c1ccccc1 (centres unmarked) [Mandelic acid]	very strong improvement	–
O=C(CO)N[C@@H](Cc1ccccc1)C(=O)O [Molecule A1, N-(2-hydroxyacetyl)-L-phenylalanine]	very strong improvement	very strong improvement
O=C(CO)N[C@@H](Cc1c[nH]c2ccccc12)C(=O)O [Molecule A2, N-(2-hydroxyacetyl)-L-tryptophan]	–	very strong improvement
